Data from doi:10.1101/2025.11.10.687652.
No constants are given. Whether binding was seen depends on the method and setting. Binding seen in cells or lysates may run through a third protein. Binding calls can cover weak binding; strength is not graded here.

Target: Xenopus HA-NASP Δ525–534 (Xenopus)
Assay: co-IP; HA-NASP from wheat germ extract pre-immobilised on anti-HA magnetic beads, incubated with 30 μL 25% NPE (Xenopus nucleoplasmic egg extract) for 1 hour at 4 °C, washed with 2xELB-sucrose; immunoblot

B1: Xenopus DONSON (endogenous) (protein, UniProt Q5U4U4 1-579)
chain: MAELLPGYSPSFKKPSEILRLSRRRSRSEASKTGLSPFSPGDVIKRVPGLRPFSPGPNKGAGVKRRNPFASLENTVCSPVKRRAETVAEYGAASLEPRALSAVRPSCLGQDSPEPPQFNSVEDVIWGDPLAADADPLVKTESPEKPAPACEIPKGSVTFPADWSLKTRLLFTSSHSFSWADHLKAQEEAQGLVMQCRATAVNLPHSIQEPKLSTDLRCAFQQSLVHWIHPSLPWVQLFPRIGVDRKMAGKNTPWSQDESLQQVLMSEWALSFTSLYNLLKAKLCPYFYVCTYQFTVLFRAAGLAGSDVITAVMSPTTRGLREAMKNEGITFSQPLVEDDTGKKQKKPEAASQGDINPEKENGTAEADEASDESDEDESFSWLEEMGVEDKIKKPDSISIKLRKEKNEVKLDHKPESVVLVKGTNTFTLLNFLINCKSIVAAAGLQAGLPPTLLSPVAFRGATMHALKARSVNVKTRVNSGYKDQFSLEITGPIMPHSLHSLTMLLQSAQRGSFSAGLYTHEPTAVFNTPIHSQAVKEISADLQNCGLHPCTVEQLTQVNELGKLSLRHLEMTDYRYTWK
binding: binds
